Measured values from article PMC7086158.
Read-outs that look alike come from different tables or passages of the source. Results are given in words; binding and its absence hold for the method and conditions named. Binding seen in cells or lysates may run through a third protein. These calls come from enrichment with a bait or labelling near it, and not all partners need be listed. A no says only that the protein was not detected with the bait. Tags and fused reporters may be left off the sequences shown.

The chains behind the UniProt entries cited, without tags or fusion partners.
UniProt Q12972: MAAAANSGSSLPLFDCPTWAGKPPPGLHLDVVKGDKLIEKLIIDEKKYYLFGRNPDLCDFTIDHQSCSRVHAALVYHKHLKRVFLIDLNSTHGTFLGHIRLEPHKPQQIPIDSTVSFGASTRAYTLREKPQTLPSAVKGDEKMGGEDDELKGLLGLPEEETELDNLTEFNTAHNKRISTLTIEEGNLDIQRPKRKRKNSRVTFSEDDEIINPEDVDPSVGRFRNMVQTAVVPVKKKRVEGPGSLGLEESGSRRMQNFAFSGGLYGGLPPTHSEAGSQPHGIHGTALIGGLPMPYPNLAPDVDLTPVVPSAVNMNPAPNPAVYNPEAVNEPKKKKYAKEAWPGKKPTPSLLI
UniProt Q9UQ35: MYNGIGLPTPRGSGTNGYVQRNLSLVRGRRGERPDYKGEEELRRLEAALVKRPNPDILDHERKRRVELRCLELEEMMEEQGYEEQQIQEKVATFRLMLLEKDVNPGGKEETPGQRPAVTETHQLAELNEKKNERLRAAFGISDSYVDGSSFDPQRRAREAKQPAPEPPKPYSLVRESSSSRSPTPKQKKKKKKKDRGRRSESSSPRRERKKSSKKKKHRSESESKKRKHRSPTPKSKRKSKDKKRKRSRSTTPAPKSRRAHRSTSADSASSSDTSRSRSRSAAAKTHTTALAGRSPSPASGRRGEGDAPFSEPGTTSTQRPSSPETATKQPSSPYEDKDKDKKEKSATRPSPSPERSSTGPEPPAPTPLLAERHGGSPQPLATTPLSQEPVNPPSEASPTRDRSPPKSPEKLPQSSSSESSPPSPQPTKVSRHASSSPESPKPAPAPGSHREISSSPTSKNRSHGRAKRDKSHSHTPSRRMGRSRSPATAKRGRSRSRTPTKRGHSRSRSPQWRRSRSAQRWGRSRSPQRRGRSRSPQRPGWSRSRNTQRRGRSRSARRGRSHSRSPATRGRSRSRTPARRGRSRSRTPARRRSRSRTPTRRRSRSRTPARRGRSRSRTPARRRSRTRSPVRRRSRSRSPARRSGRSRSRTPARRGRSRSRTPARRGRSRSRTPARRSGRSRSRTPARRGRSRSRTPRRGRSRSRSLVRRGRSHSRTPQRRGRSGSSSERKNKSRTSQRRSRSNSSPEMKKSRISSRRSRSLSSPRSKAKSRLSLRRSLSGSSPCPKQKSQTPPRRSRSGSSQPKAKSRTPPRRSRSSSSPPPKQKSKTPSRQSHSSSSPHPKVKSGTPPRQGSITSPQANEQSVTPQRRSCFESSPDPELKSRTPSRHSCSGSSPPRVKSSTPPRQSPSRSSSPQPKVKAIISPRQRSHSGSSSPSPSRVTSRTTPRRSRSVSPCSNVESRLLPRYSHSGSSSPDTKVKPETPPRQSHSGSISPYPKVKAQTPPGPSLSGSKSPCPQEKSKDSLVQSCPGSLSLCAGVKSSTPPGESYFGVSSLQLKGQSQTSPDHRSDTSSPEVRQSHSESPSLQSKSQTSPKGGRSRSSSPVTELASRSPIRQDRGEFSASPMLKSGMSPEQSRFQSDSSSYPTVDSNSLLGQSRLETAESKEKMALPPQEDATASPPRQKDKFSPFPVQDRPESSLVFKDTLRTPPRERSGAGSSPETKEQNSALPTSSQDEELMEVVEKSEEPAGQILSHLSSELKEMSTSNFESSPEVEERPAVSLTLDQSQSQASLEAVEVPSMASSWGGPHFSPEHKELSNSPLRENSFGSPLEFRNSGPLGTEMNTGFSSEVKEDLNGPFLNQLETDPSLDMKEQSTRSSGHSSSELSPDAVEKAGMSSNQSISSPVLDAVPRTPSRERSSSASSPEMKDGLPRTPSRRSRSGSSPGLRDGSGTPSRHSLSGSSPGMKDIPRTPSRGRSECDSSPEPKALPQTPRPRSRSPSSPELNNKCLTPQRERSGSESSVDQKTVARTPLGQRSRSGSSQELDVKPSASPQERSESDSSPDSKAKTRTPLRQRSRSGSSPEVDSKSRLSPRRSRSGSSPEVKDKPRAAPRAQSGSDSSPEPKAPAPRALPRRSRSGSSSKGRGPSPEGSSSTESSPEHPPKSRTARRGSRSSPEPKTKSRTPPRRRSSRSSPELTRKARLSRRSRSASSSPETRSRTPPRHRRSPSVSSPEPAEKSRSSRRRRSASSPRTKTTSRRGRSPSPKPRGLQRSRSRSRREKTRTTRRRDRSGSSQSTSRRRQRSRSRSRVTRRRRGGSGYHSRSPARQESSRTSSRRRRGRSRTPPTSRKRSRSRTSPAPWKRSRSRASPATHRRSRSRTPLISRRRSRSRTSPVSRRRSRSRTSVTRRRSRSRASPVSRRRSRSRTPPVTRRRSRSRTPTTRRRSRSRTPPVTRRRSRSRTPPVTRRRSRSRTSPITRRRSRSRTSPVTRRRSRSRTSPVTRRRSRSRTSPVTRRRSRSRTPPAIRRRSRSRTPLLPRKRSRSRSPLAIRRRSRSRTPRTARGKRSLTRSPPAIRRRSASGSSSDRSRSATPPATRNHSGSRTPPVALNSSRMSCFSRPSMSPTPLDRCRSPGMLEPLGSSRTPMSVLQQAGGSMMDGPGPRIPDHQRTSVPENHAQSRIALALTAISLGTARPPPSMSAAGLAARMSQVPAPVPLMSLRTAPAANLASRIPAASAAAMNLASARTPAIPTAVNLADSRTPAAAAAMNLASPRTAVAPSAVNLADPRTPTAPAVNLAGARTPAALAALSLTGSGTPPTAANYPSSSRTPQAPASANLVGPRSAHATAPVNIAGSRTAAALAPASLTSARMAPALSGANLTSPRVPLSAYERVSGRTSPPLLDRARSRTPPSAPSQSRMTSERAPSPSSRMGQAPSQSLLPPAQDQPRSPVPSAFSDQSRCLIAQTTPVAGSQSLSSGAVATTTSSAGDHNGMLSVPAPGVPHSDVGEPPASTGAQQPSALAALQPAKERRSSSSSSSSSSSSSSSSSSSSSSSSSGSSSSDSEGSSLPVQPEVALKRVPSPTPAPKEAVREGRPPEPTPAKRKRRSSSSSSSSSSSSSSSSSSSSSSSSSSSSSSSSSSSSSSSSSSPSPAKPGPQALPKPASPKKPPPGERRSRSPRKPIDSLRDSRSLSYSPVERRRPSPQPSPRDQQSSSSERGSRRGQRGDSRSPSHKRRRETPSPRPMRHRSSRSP

Legend:
Experiment in all cases: affinity purification with mass spectrometry; lysates of U2OS cells with N- or C-terminally FLAG-tagged murine Nuak1 on anti-FLAG M2 magnetic beads overnight, eluted with 3X FLAG peptide; enrichment over empty-vector cells
[1] = target: T1, N-terminally FLAG-tagged murine Nuak1 (mouse) (UniProt Q641K5)
T1 sequence: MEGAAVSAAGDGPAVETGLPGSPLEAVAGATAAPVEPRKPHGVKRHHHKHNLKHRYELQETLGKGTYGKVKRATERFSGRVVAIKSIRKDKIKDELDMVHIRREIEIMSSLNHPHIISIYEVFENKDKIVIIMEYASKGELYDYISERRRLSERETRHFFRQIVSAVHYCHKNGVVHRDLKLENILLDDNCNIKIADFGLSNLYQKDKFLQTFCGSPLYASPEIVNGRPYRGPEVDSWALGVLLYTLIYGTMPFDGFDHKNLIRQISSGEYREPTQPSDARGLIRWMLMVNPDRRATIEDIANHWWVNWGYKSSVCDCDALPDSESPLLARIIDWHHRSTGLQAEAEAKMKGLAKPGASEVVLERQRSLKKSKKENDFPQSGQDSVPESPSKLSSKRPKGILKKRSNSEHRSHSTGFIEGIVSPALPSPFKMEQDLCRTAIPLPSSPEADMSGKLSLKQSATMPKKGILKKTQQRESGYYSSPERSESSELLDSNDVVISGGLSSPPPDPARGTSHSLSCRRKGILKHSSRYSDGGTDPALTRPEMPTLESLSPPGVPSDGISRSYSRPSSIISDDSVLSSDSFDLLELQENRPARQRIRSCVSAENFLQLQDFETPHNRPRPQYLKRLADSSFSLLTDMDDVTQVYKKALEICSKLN

[2] = target: T2, C-terminally FLAG-tagged murine Nuak1 (mouse) (UniProt Q641K5)
T2 sequence: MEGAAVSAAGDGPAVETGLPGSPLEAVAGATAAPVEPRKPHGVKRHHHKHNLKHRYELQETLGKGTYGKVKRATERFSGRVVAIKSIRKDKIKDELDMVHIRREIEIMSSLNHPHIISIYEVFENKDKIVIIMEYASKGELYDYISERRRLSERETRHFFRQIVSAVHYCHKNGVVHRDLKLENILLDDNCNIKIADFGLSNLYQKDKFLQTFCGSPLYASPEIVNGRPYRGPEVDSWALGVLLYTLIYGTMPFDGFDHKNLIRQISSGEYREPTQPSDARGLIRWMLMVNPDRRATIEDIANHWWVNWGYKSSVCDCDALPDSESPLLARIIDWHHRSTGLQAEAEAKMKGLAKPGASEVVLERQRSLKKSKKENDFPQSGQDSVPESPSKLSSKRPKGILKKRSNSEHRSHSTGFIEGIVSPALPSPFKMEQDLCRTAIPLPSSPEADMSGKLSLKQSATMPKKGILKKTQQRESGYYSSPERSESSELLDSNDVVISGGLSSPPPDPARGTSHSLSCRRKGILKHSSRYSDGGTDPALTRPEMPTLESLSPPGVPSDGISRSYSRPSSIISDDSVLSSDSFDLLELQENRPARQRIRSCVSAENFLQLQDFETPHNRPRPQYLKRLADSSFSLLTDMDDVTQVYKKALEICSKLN

[3] = target: T1, N-terminally FLAG-tagged murine Nuak1 (mouse); remark: listed apart in the source
[4] = target: T2, C-terminally FLAG-tagged murine Nuak1 (mouse); remark: listed apart in the source

NIPP1 (nuclear inhibitor of PP1) (from UniProt Q12972 1-351)
binding [1]: no binding
binding [2]: no binding

SRRM2 (from UniProt Q9UQ35 1-2752)
binding [1]: binds
binding [2]: binds

B1: PNUTS (PP1-nuclear targeting subunit) (protein, UniProt Q96QC0 1-940)
chain: MGSGPIDPKELLKGLDSFLNRDGEVKSVDGISKIFSLMKEARKMVSRCTYLNILLQTRSPEILVKFIDVGGYKLLNNWLTYSKTTNNIPLLQQILLTLQHLPLTVDHLKQNNTAKLVKQLSKSSEDEELRKLASVLVSDWMAVIRSQSSTQPAEKDKKKRKDEGKSRTTLPERPLTEVKAETRAEEAPEKKREKPKSLRTTAPSHAKFRSTGLELETPSLVPVKKNASTVVVSDKYNLKPIPLKRQSNVAAPGDATPPAEKKYKPLNTTPNATKEIKVKIIPPQPMEGLGFLDALNSAPVPGIKIKKKKKVLSPTAAKPSPFEGKTSTEPSTAKPSSPEPAPPSEAMDADRPGTPVPPVEVPELMDTASLEPGALDAKPVESPGDPNQLTRKGRKRKSVTWPEEGKLREYFYFELDETERVNVNKIKDFGEAAKREILSDRHAFETARRLSHDNMEEKVPWVCPRPLVLPSPLVTPGSNSQERYIQAEREKGILQELFLNKESPHEPDPEPYEPIPPKLIPLDEECSMDETPYVETLEPGGSGGSPDGAGGSKLPPVLANLMGSMGAGKGPQGPGGGGINVQEILTSIMGSPNSHPSEELLKQPDYSDKIKQMLVPHGLLGPGPIANGFPPGGPGGPKGMQHFPPGPGGPMPGPHGGPGGPVGPRLLGPPPPPRGGDPFWDGPGDPMRGGPMRGGPGPGPGPYHRGRGGRGGNEPPPPPPPFRGARGGRSGGGPPNGRGGPGGGMVGGGGHRPHEGPGGGMGNSSGHRPHEGPGGGMGSGHRPHEGPGGSMGGGGGHRPHEGPGGGISGGSGHRPHEGPGGGMGAGGGHRPHEGPGGSMGGSGGHRPHEGPGHGGPHGHRPHDVPGHRGHDHRGPPPHEHRGHDGPGHGGGGHRGHDGGHSHGGDMSNRPVCRHFMMKGNCRYENNCAFYHPGVNGPPLP
binding [3]: binds
binding [4]: binds

B2: Repo-Man (protein, UniProt Q69YH5 1-1023)
chain: MDANSKDKPPETKESAMNNAGNASFILGTGKIVTPQKHAELPPNPCTPDTFKSPLNFSTVTVEQLGITPESFVRNSAGKSSSYLKKCRRRSAVGARGSPETNHLIRFIARQQNIKNARKSPLAQDSPSQGSPALYRNVNTLRERISAFQSAFHSIKENEKMTGCLEFSEAGKESEMTDLTRKEGLSACQQSGFPAVLSSKRRRISYQRDSDENLTDAEGKVIGLQIFNIDTDRACAVETSVDLSEISSKLGSTQSGFLVEESLPLSELTETSNALKVADCVVGKGSSDAVSPDTFTAEVSSDAVPDVRSPATPACRRDLPTPKTFVLRSVLKKPSVKMCLESLQEHCNNLYDDDGTHPSLISNLPNCCKEKEAEDEENFEAPAFLNMRKRKRVTFGEDLSPEVFDESLPANTPLRKGGTPVCKKDFSGLSSLLLEQSPVPEPLPQPDFDDKGENLENIEPLQVSFAVLSSPNKSSISETLSGTDTFSSSNNHEKISSPKVGRITRTSNRRNQLVSVVEESVCNLLNTEVQPCKEKKINRRKSQETKCTKRALPKKSQVLKSCRKKKGKGKKSVQKSLYGERDIASKKPLLSPIPELPEVPEMTPSIPSIRRLGSGYFSSNGKLEEVKTPKNPVKRKDLLRHDPDLHMHQGYDKYDVSEFCSYIKSSSSLGNATSDEDPNTNIMNINENKNIPKAKNKSESENEPKAGTDSPVSCASVTEERVASDSPKPALTLQQGQEFSAGGQNAENLCQFFKISPDLNIKCERKDDFLGAAEGKLQCNRLMPNSQKDCHCLGDVLIENTKESKSQSEDLGRKPMESSSVVSCRDRKDRRRSMCYSDGRSLHLEKNGNHTPSSSVGSSVEISLENSELFKDLSDAIEQTFQRRNSETKVRRSTRLQKDLENEGLVWISLPLPSTSQKAKRRTICTFDSSGFESMSPIKETVSSRQKPQMAPPVSDPENSQGPAAGSSDEPGKRRKSFCISTLANTKATSQFKGYRRRSSLNGKGESSLTALERIEHNGERKQ
binding [3]: no binding
binding [4]: no binding
